Assay results from PubChem BioAssay AID212 (DTP/NCI, 2004).
The list does not hold the whole screen: it gathers tests that were run many times, whatever their T/C, doses with no T/C, and many T/C values between a quarter and a half above the control. Further doses and runs are listed elsewhere. T/C gives the treated animals as a percentage of the vehicle group. Schedules are NCI's codes, taken here to give the interval after Q, in days (D) or hours (H), and the number of doses after X. Some entries give survivors of the animals treated and no T/C: the source files T/C as zero there, which appears to mark a toxic dose or a test without result, not a measured value. Survivors were counted at the toxicity check, usually on the fifth day, unless a day is given; later deaths do not show. Some doses were run more than once; the results are listed from low to high. For survival time, the PubChem record calls one and a half times the control and up active, and a quarter to a half above the control has no call in these data; cut-offs in other NCI protocols can differ. Some T/C values carry the count of animals alive at the toxicity check (mostly the fifth day); without a count, all were alive then.

System: BDF1 mice, colon carcinoma 38 sc, T/C %
Assay: NCI In Vivo Anticancer Drug Screen. Data for tumor model Colon Carcinoma 38 (subcutaneous) in B6D2F1 (BDF1) mice
Method in brief: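 Mice with transplanted tumors are treated with compound or vehicle. Survival or tumor size is then measured in both groups. The ratio of treated to control gives the reported figure.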

Question: What does the source list for `O=C1c2ccccc2C(=O)c2c3c(cc(NCCNCCO)c21)N(CCO)CCN3`?
Answer: T/C (T/C endpoint: median tumor weight (est.), dose: 25.0 mg/kg/injection, schedule: Q07DX002 (ip), vehicle: DMSO, evaluated on day 20, higher T/C = larger tumour): 129 % of control; T/C (T/C endpoint: median tumor weight (est.), dose: 50.0 mg/kg/injection, schedule: Q07DX002 (ip), vehicle: DMSO, evaluated on day 20, higher T/C = larger tumour): 128 % of control; survivor count (T/C endpoint: median tumor weight (est.), dose: 800.0 mg/kg/injection, schedule: Q07DX002 (ip), vehicle: DMSO, higher T/C = larger tumour): 4 of 10 on day 20

Question: How did the survivor count (T/C endpoint: median tumor weight (est.), dose: 200.0 mg/kg/injection, schedule: Q07DX002 (ip), vehicle: water, higher T/C = larger tumour) turn out when `COc1cccc2c1C(=O)c1c(O)c3c(c(O)c1C2=O)C[C@@](O)(C(O)CO)C[C@@H]3OC1CC(N(Cc2ccccc2)Cc2ccccc2)C(O)C(C)O1` (stereo not given in full) was run?
Answer: 0 of 10 on day 20

Question: What does the source list for `CC[C@]1(O)C[C@H]2CN(CCc3c([nH]c4ccccc34)[C@@](C(=O)OC)(c3cc4c(cc3OC)N(C=O)[C@H]3[C@@](O)(C(=O)OC)[C@H](OC(C)=O)[C@]5(CC)C=CCN6CC[C@]43[C@@H]65)C2)C1`?
Answer: T/C (T/C endpoint: median tumor weight (est.), dose: 0.5 mg/kg/injection, schedule: Q07DX002 (ip), vehicle: saline, evaluated on day 20, higher T/C = larger tumour): 128 % of control; survivor count (T/C endpoint: median tumor weight (est.), dose: 8.0 mg/kg/injection, schedule: Q07DX002 (ip), vehicle: saline, higher T/C = larger tumour): 3 of 10 on day 20 and 4 of 10 on day 20

Question: With `CCCCCCCCCCCCCCCCCC(=O)OCC(=O)OCC(=O)[C@]1(O)Cc2c(O)c3c(c(O)c2[C@@H](OC2CC(N)C(O)C(C)O2)C1)C(=O)c1c(OC)cccc1C3=O` (stereo not given in full) as the compound, how does the T/C (T/C endpoint: median survival time, dose: 18.6 mg/kg/injection, schedule: Q07DX002 (iv), vehicle: saline, higher T/C = longer survival) read?
Answer: 128 % of control

Question: And the T/C (T/C endpoint: median survival time, dose: 30.0 mg/kg/injection, schedule: Q07DX002 (iv), vehicle: saline, higher T/C = longer survival)?
Answer: 132 % of control [9 of 10 alive on day 44]

Question: What about the survivor count (T/C endpoint: median survival time, dose: 48.0 mg/kg/injection, schedule: Q07DX002 (iv), vehicle: saline, higher T/C = longer survival) of the same compound?
Answer: 6 of 10 on day 44

Question: And the survivor count (T/C endpoint: median survival time, dose: 78.0 mg/kg/injection, schedule: Q07DX002 (iv), vehicle: saline, higher T/C = longer survival)?
Answer: 4 of 10 on day 44

Question: And the survivor count (T/C endpoint: median tumor weight (est.), dose: 27.0 mg/kg/injection, schedule: Q07DX002 (ip), vehicle: saline with Tween-80, higher T/C = larger tumour)?
Answer: 1 of 10 on day 20

Question: And the survivor count (T/C endpoint: median tumor weight (est.), dose: 54.0 mg/kg/injection, schedule: Q07DX002 (ip), vehicle: saline with Tween-80, higher T/C = larger tumour)?
Answer: 0 of 10 on day 20 and 5 of 10 on day 20

Question: What does the source list for `[Cl][Sn]([c]1ccccc1)[c]1ccccc1`?
Answer: T/C (T/C endpoint: median tumor weight (est.), dose: 0.78 mg/kg/injection, schedule: Q07DX002 (ip), vehicle: saline, evaluated on day 20, higher T/C = larger tumour): 125 % of control; T/C (T/C endpoint: median tumor weight (est.), dose: 1.56 mg/kg/injection, schedule: Q07DX002 (ip), vehicle: saline, evaluated on day 20, higher T/C = larger tumour): 128 % of control; T/C (T/C endpoint: median tumor weight (est.), dose: 3.12 mg/kg/injection, schedule: Q07DX002 (ip), vehicle: saline, evaluated on day 20, higher T/C = larger tumour): 133 % of control; survivor count (T/C endpoint: median tumor weight (est.), dose: 50.0 mg/kg/injection, schedule: Q09DX002 (ip), vehicle: saline, higher T/C = larger tumour): 2 of 10 on day 20; survivor count (T/C endpoint: median tumor weight (est.), dose: 100.0 mg/kg/injection, schedule: Q09DX002 (ip), vehicle: saline, higher T/C = larger tumour): 0 of 10 on day 20; survivor count (T/C endpoint: median tumor weight (est.), dose: 200.0 mg/kg/injection, schedule: Q09DX002 (ip), vehicle: saline, higher T/C = larger tumour): 0 of 10 on day 20; survivor count (T/C endpoint: median tumor weight (est.), dose: 400.0 mg/kg/injection, schedule: Q09DX002 (ip), vehicle: saline, higher T/C = larger tumour): 0 of 10 on day 20

Question: With `COC1/C=C/O[C@@]2(C)Oc3c(C)c(O)c4c(O)c(cc(O)c4c3C2=O)NC(=O)/C(C)=C\C=C\[C@H](C)C(O)[C@@H](C)[C@@H](O)[C@@H](C)[C@H](OC(C)=O)[C@@H]1C` (stereo not given in full) as the compound, how does the T/C (T/C endpoint: median tumor weight (est.), dose: 25.0 mg/kg/injection, schedule: Q07DX002 (ip), vehicle: saline with Tween-80, evaluated on day 20, higher T/C = larger tumour) read?
Answer: 144 % of control

Question: Which T/C (T/C endpoint: median tumor weight (est.), dose: 2.0 mg/kg/injection, schedule: Q07DX003 (ip), vehicle: Klucel (hydroxypropylcellulose) (HPC), evaluated on day 20, higher T/C = larger tumour) does the source give for `CC[C@]1(O)C[C@H](OC2CC(N(C)C)C(OC3CC(O)C(O)C(C)O3)C(C)O2)c2c(cc3c(c2O)C(=O)c2c(O)ccc(O)c2C3=O)[C@H]1C(=O)OC` (stereo not given in full) here?
Answer: 142 % of control

Question: Which survivor count (T/C endpoint: median tumor weight (est.), dose: 200.0 mg/kg/injection, schedule: Q07DX002 (ip), vehicle: saline with Tween-80, higher T/C = larger tumour) does the source give for `O=C(Nc1cccc2c(OC(=O)C(Cl)Cl)c(N=Nc3ccc(S(=O)(=O)Nc4nccs4)cc3)cc(N=Nc3ccc(S(=O)(=O)Nc4nccs4)cc3)c12)C(Cl)Cl` (tested in a mixture with another compound) here?
Answer: 1 of 10 on day 20

Question: With `COC(=O)Nc1cccc(-c2nc3ccc(NC(=O)OC)cc3c(=O)n2-c2ccccc2)c1` as the compound, how does the T/C (T/C endpoint: median tumor weight (est.), dose: 16.0 mg/kg/injection, schedule: Q07DX003 (ip), vehicle: Klucel (hydroxypropylcellulose) (HPC), evaluated on day 20, higher T/C = larger tumour) read?
Answer: 140 % of control

Question: Which T/C (T/C endpoint: median tumor weight (est.), dose: 50.0 mg/kg/injection, schedule: Q07DX002 (ip), vehicle: saline, evaluated on day 20, higher T/C = larger tumour) does the source give for `Nc1nc(F)nc2c1ncn2C1OC(COP(=O)(O)O)C(O)C1O` (stereo not given) here?
Answer: 143 % of control

Question: And the survivor count (T/C endpoint: median tumor weight (est.), dose: 800.0 mg/kg/injection, schedule: Q07DX002 (ip), vehicle: saline, higher T/C = larger tumour)?
Answer: 6 of 10 on day 20
